Measurements from paper PMC5996148.
Values joined by “and” are separate entries in the source; they are usually repeats but may differ in a detail not shown here. Equal values may be shown once. The list shows a part of the results.

Experiments:
Test in all cases: protein microarray (ProtoArray v5.0), streptavidin-Alexa Fluor 647
Conditions in all cases: 3'-biotin; 20 mM Tris (pH 7.5), 5 mM MgCl2, 100 mM KCl, 0.1% Tween-20, A/T-rich and random oligonucleotide blockers; temperature not stated; high values mean tight binding
HK1 (human) = system: HK1 (human)
HKDC1 (human) = system: HKDC1 (human)
[1] = system: HLA class I histocompatibility antigen, Cw-7 alpha chain (human)
HLA-B (human) = system: HLA-B (human)
HLA-DQA1 (human) = system: HLA-DQA1 (human)
HM13 (human) = system: HM13 (human)
HMG20B (human) = system: HMG20B (human)
HN1 (human) = system: HN1 (human)
HNT (human) = system: HNT (human)
HOOK3 (human) = system: HOOK3 (human)

With “GGGAGGCTGAGGCAGG [G4-1 biotinylated (PQS2)]” the binding signal (HK1 (human)) was -0.344 z-score, the binding signal (HKDC1 (human)) was -0.334 z-score and the binding signal [1] was -0.336 z-score. For the same sequence, the binding signal (HLA-B (human)) was -0.284 z-score, the binding signal (HLA-DQA1 (human)) was -0.316 z-score and the binding signal (HM13 (human)) was -0.262 z-score. For the same sequence, the binding signal (HMG20B (human)) was -0.321 z-score, the binding signal (HN1 (human)) was -0.339 z-score and -0.343 z-score and the binding signal (HNT (human)) was -0.272 z-score. For the same sequence, the binding signal (HOOK3 (human)) was -0.287 z-score.
